Laboratory results published in PubChem BioAssay AID624297 (National Center for Advancing Translational Sciences (NCATS), 2012).
“And” between values parts separate entries of the source, which are not always exact repeats. Equal values may be shown once. The campaign covered roughly 340,000 compounds. About 6,200 (1.8%) were called active. This list was built around the results that the source calls inconclusive (neither active nor inactive); the mix of calls is not that of the screen. The call rests on the fitted dose curve; in most records, active means well fitted activation curve with a large enough effect; inconclusive means small, poorly fitted or top-dose-only effect; inactive means no such curve, though single readings can be large or run the other way. Potencies beside an inconclusive call are fits to weak or partial responses and may not hold up. A structure can be active in one record and inactive in another.

Test: A quantitative high throughput screen for small molecules that induce DNA re-replication in SW480 colon adenocarcinoma cells. Further: nearly all actives have a fitted effect of over 55% in size.
Conditions: Hoechst DNA content imaging, 48 h; series mostly up to 46.1 µM
Outline: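 SW480 cells exposed to compounds for 48 hr at 37 C, 5% CO2, then Hoechst-stained 40 min. Nuclear DNA content imaged by fluorescence scanning (405 nm excitation, 500-530 nm emission); re-replication scored as increased high-intensity nuclei.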
Potency means the concentration at half of the fitted maximal effect.

| SMILES | Potency |
| --- | --- |
| CC[C@@H](O)C[C@H]1CCC[C@@]2(C[C@@H]3OC(=O)/C=C/[C@@](C)(O)[C@@H](O)[C@H](C)[C@@H](O)[C@H](OC4CCC(N(C)C)C(C)O4)[C@@H](O)[C@](C)(O)CCCCC/C=C/[C@@H]4CC(C)(C)O[C@@]4(O)C[C@H](O2)[C@H]3C)O1 (stereo partly specified) | inconclusive: 23.1 µM [activator, single point] |
| O=C1NC(=O)N(Cc2ccc(F)cc2)C(=O)/C1=C/c1cccs1 | inconclusive: 29.1 µM [activator, single point] |
| Cc1oc(-c2ccccc2Cl)nc1CN1C(=O)CN=C(c2ccccc2)c2ccccc21 | inconclusive: 13 µM [activator, partial curve] |
| CC[C@]1(C(=O)OC)[C@H]2C(=O)N(Cc3ccccc3)C(=O)[C@H]2[C@H]2CN=C(SCc3ccc(C(=O)OC)cc3)N21 | inconclusive: 1.16 µM [activator, single point] |
| C=C1C(=O)O[C@H]2C[C@@H](C)[C@@H]3C=CC(=O)[C@@]3(C)C[C@H]12 | inconclusive: 1.46 µM [activator, partial curve] |
| Cc1cccc(N2C(=O)NC(=O)/C(=C\c3cccn3-c3ccc(Cl)cc3)C2=O)c1 | inconclusive: 23.1 µM [activator, partial curve, poor fit] |
| Cc1cccc(-n2c(/C=C/c3ccc([N+](=O)[O-])o3)nc3ccccc3c2=O)c1 | active: 6.51 µM |
| C[C@@H]1CC[C@H]2[C@@H](C)C(=O)O[C@@H]3O[C@@]4(C)CC[C@@H]1[C@]32OO4 | inconclusive: 1.3 µM [activator, full curve, poor fit] |
| CC[C@H]1CN2CCc3cc(OC)c(OC)cc3[C@@H]2C[C@@H]1C[C@H]1NCCc2cc(OC)c(OC)cc21 | active: 0.291 µM |
| CCOc1ccccc1CN1C2CCC1CC(c1ccc(C)cc1)C2 (stereo unspecified) | inconclusive: 8.2 µM [activator, partial curve, poor fit] |
| CCC1CN2CCc3cc(OC)c(OC)cc3C2CC1CC1NCCc2c1[nH]c1ccc(O)cc21 (stereo unspecified) | inconclusive: 0.82 µM [activator, full curve, poor fit] |
| Cc1ccc(NC(=O)c2ncn(CCCNCCN3CCOCC3)n2)cc1C | inconclusive: 6.51 µM [activator, single point] |
| Cc1ccc(C(O)(c2ccc(C)c(C)c2)C2CN3CCC2CC3)cc1C (stereo unspecified) | inactive |
| O=P(C(Cl)Cl)(N1CCOCC1)N1CCOCC1 | inconclusive: 0.501 µM [activator, partial curve, poor fit] |
| COC(=O)C(Cc1ccc(N(CCCl)CCCl)cc1)N=Cc1ccccc1O (stereo unspecified) | active: 1.03 µM |
| COC(=O)C1=C(c2ccc(F)cc2OCc2ccccc2)C[C@@H]2CC[C@H]1N2C(=O)NCc1ccc(F)cc1 | active: 0.517 µM |
| C=CCn1c(O)c(C=Nc2ccc(OC)cc2C)c(=O)[nH]c1=O | inconclusive: 35.5 µM [activator, single point] |
| CCc1cc(=O)oc2c(C)c(OCC(=O)N3C[C@H]4C[C@@H](C3)c3cccc(=O)n3C4)ccc12 | inconclusive: 0.231 µM [activator, full curve, poor fit] |
| CC(=Nc1ccc2c(c1)CCC2)c1c(O)n(-c2ccccc2)c(=O)[nH]c1=O | inactive |
| CCCCn1c(NC(=O)c2ccc(Br)o2)c(C(=O)OCC)c2nc3ccccc3nc21 | inactive and active: 16.4 µM |
| COc1cc([C@@H]2c3cc4c(cc3[C@H](O)[C@H]3COC(=O)[C@H]23)OCO4)cc(OC)c1OC | active: 16.8 nM and active: 23.1 nM |
| N#CC1=C(N)Oc2c(c(=O)sc3ccccc23)C1c1ccncc1 (stereo unspecified) | active: 13 µM |

| SMILES | Potency |
| --- | --- |
| Cn1c(NN=O)nc2ccccc21 | inconclusive: 0.731 µM [activator, full curve] |
| C=C1C(C)C2C(Cc3ccccc3)NC(=O)C23OC(=O)/C=C/C(O)CCCC(C)C/C=C/C3C1O (stereo unspecified) | active: 9.2 µM |
| COC(=O)C1=C(c2cccc(OC)c2OC)C[C@@H]2CC[C@H]1N2C(=O)N1CCCC1 | inactive |
| COC(=O)Cn1cc(/C=C2\C(=O)NC(=O)N(c3ccccc3)C2=O)c2ccccc21 | inconclusive: 18.4 µM [activator, partial curve, poor fit] |
| C[n+]1c(-c2ccccc2)cc(-c2ccc(Cl)cc2)cc1-c1ccccc1 | inconclusive: 14.6 µM [activator, partial curve] |
| CC(C)Cc1[nH]c(=O)c(C#N)c2c1CCC2 | inactive |
| CC1CCN(C(=O)c2ccc(N3CC4CC(C3)c3cccc(=O)n3C4)c([N+](=O)[O-])c2)CC1 (stereo unspecified) | inconclusive: 23.1 µM [activator, partial curve, poor fit] |
| COCCCNC(=O)c1c(N)n(Cc2ccco2)c2nc3ccccc3nc12 | active: 9.2 µM |
| CCCOC(=O)c1ccccc1C(=O)OCCC | inconclusive: 25.9 µM [activator, single point] |
| COCCNC(=O)c1c(N)n(Cc2ccco2)c2nc3ccccc3nc12 | inactive |
| Cc1ccc(C(=O)C2CN(C)CC2C(=O)c2ccc(C)cc2)cc1 (stereo unspecified) | inactive |
| CC(N=Cc1c(O)[nH]c(=O)[nH]c1=O)c1ccccc1 (stereo unspecified) | inactive |
| CNCC(=O)c1ccccc1 | inconclusive: 29.1 µM [activator, partial curve, poor fit] |
| CC(C)CCn1c(=O)c(C(=O)NCc2ccco2)c(O)c2ccccc21 | inactive |
| COc1cccc(NP(=O)(Oc2ccc(Cl)cc2)Oc2ccc(Cl)cc2)c1 | inconclusive: 22.4 µM [activator, single point] |
| CCc1ccc(OCC(=O)N2CCN(Cc3ccc4c(c3)OCO4)CC2)cc1 | inactive |
| CCCCC(=O)N/N=C/c1c(O)n(CCc2ccccc2)c(=O)[nH]c1=O | inconclusive: 20.6 µM [activator, partial curve, poor fit] |
| Cc1ccc(N2C(=O)NC(=O)/C(=C/c3ccoc3)C2=O)cc1 | inactive |
| COc1ccccc1C1C([N+](=O)[O-])=C(N)Oc2c1c(=O)oc1ccccc21 (stereo unspecified) | inactive |
| COc1ccc(Oc2cc(NC(=O)c3nn(C)cc3[N+](=O)[O-])cc([N+](=O)[O-])c2)cc1 | inconclusive: 4.11 µM [activator, single point] |
| O=C(Cc1cc(=O)oc2cc(O)ccc12)NN=Cc1ccc(N(CCCl)CCCl)cc1 | inconclusive: 18.4 µM [activator, single point] |
| CCOc1ccc(-n2c(O)c(C=Nc3ccc(N(CC)CC)cc3)c(=O)[nH]c2=O)cc1 | inconclusive: 18.4 µM [activator, single point] |

Structures from the list above with sulfur:

| SMILES | Potency |
| --- | --- |
| O=C1NC(=O)N(Cc2ccc(F)cc2)C(=O)/C1=C/c1cccs1 | inconclusive: 29.1 µM [activator, single point] |
| CC[C@]1(C(=O)OC)[C@H]2C(=O)N(Cc3ccccc3)C(=O)[C@H]2[C@H]2CN=C(SCc3ccc(C(=O)OC)cc3)N21 | inconclusive: 1.16 µM [activator, single point] |
| N#CC1=C(N)Oc2c(c(=O)sc3ccccc23)C1c1ccncc1 (stereo unspecified) | active: 13 µM |

(further entries)

| SMILES | Potency |
| --- | --- |
| Cc1ccc2c(c1Cl)NC(C(=O)O)C1CC(Sc3ccccc3[N+](=O)[O-])C(Cl)C21 (stereo unspecified) | inactive |
| Nc1cc(Cl)cc(C(=O)O)c1Cl | inconclusive: 0.116 µM [activator, full curve] |
| Cc1ccc(S(=O)(=O)N[C@@H](CCCCN)C(=O)CCl)cc1 | inconclusive: 13.3 µM [activator, full curve] |
| O=C1CN=C(c2ccccc2)c2cc([N+](=O)[O-])ccc2N1 | inactive |
| O=c1[nH]c(=S)n(-c2ccccc2)c(O)c1/C=N/N1CCOCC1 | inactive |
| CCn1c(=O)oc2cc(NC(=O)CCl)ccc21 | inconclusive: 0.517 µM [activator, full curve, poor fit] |
| CCCNS(=O)(=O)c1ccc(OCC(=O)N2CCN(Cc3ccc4c(c3)OCO4)CC2)cc1 | inactive |
| COc1cc(OC)c2c(c1)O[C@@H](c1ccc(OC)c(OC)c1)[C@H](O)C2 | inactive |
| Cn1c(=O)c2c(ncn2CCCl)n(C)c1=O | inactive |
| Cc1ccc2c(c1)c(=O)c1c3n2CCN(CC2CO2)C3CC1 (stereo unspecified) | inconclusive: 20.6 µM [activator, partial curve, poor fit] |
| O=C(N/N=C/c1c(O)n(C2CCCCC2)c(=S)[nH]c1=O)c1ccccc1 | inconclusive: 20.6 µM [activator, single point] |
| C=C1[C@@H](C)[C@H]2[C@H](Cc3ccccc3)NC(=O)[C@]23OC(=O)/C=C/[C@H](O)CCC[C@@H](C)C/C=C/[C@H]3[C@@H]1O | active: 5.8 µM |
| COc1ccc(CC(=O)N2CCN(C)CC2)cc1OC | inactive |
| O=c1c2ccccc2nc(/C=C\c2ccccc2[N+](=O)[O-])n1-c1ccccc1O | inconclusive: 29.1 µM [activator, single point] |
| OCCN1CCN(CCCN2c3ccccc3Sc3ccc(C(F)(F)F)cc32)CC1 | inconclusive: 11.6 µM [activator, single point] and inconclusive: 20.6 µM [activator, single point] |
| CN1C(=O)/C(=C\c2ccc(Br)s2)C(=O)NC1=S | inconclusive: 20.6 µM [activator, single point] |
| NC(Cc1ccccc1)c1nc2ccccc2[nH]1 (stereo unspecified) | inactive |
| Cc1ccc(C(=O)Nc2nc3ccccc3n2CCN2CCCC2)cc1 | inconclusive: 18.4 µM [activator, partial curve, poor fit] |
| Cc1cc(C)cc(N2C(=O)NC(=O)/C(=C\C=C\c3ccco3)C2=O)c1 | inconclusive: 29.1 µM [activator, single point] |
| Cc1cccc(C)c1NC(=O)CN(C)CC(=O)Nc1ccc(C#N)c(Cl)c1 | inconclusive: 25.9 µM [activator, partial curve] |
| Cc1cc2ccccn2c1C(C[N+](=O)[O-])c1c(F)cccc1Cl (stereo unspecified) | active: 7.31 µM |
| C=CCn1c(O)c(/C=C2/C=CC=N2)c(=O)[nH]c1=O | inconclusive: 23.1 µM [activator, single point] |

In the list so far, two contain a thiophene ring, fused or not.

| SMILES | Potency |
| --- | --- |
| O=C1NC(=O)N(Cc2ccc(F)cc2)C(=O)/C1=C/c1cccs1 | inconclusive: 29.1 µM [activator, single point] |
| CN1C(=O)/C(=C\c2ccc(Br)s2)C(=O)NC1=S | inconclusive: 20.6 µM [activator, single point] |
